For at least one compound, name, drawing or mass did not settle the structure.
Test system: OVA-induced allergic airway inflammation
Assay: Mouse model of ovalbumin (OVA)-induced allergic asthma
Format: in vivo, BALB/c mice
Conditions: OVA-sensitized and challenged mice
Description: On days 15, 16 and 17, mice were challenged intranasally with 50 μg of OVA. […] A sham group was given PBS only. On day 19, the mice were sacrificed and lung lobes were isolated along with the trachea. Lungs were also lavaged with 500 μL of PBS introduced through the trachea. BALF (bronchiolavage fluid) was centrifuged at 300×g for 5 min, and cells were rinsed and resuspended with PBS. Aliquots of the cell suspension were applied to slides by Cytospin (Hanil, Korea) at 500×g for 5 minutes allowed to air dry and stained with modified Wright's stain (Hema-3, Fisher Scientific). The numbers of macrophages, eosinophils, neutrophils and lymphocytes were determined morphologically and a minimum of 200 cells per slide were counted under the microscope (Eclipse, Nikon, Japan). The level of TNF-α in the supernatant of BALF was measured with an ELISA kit as advised by manufacturer (eBioScience, San Diego, Calif.). Lungs were perfused with PBS, removed and fixed in 4% buffered formalin. Lungs were embedded in paraffin and serial paraffin sections (3 μm) were cut. The sections were stained with hematoxylin (Yeongdong Pharma, Korea) and eosin (Showa Chemicals, Japan). Results are illustrated in FIGS. 49-51.

In the case of `C[C@@H]1C[C@H]2[C@@H]3CCC4=CC(=O)C=C[C@]4(C)[C@@]3(F)[C@@H](O)C[C@]2(C)[C@@]1(O)C(=O)CO` [Dex, dexamethasone], the “inflammatory cell recruitment in BALF (macrophages, eosinophils, lymphocytes, neutrophils)” value is reported as “reduced the inflammatory cell recruitment significantly” and the “peribronchial inflammation and airway remodeling (lung H&E)” value is reported as “reduced inflammatory responses”.

— US9844564B2 (Industrial Cooperation Foundation Chonbuk National …, priority 2012, dated 2017)
